PubChem BioAssay AID1259308 – NCATS – 2017
This is one part, drawn at random, of about 59,000 reagents tested. About 1,510 of all reagents (2.6%) count as active. 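Calls use total luciferase alone and ignore viability, so some active siRNAs may act by altering cell number.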 The numbers tell different reagents against one gene apart. Not all columns of the deposit are shown. Reagent sequences are not shown.

- Purpose: 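Knock-downs that increase output of a recombinant reporter protein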 (primary screen)
- Cell system: human HEK293 embryonic kidney cells stably expressing firefly luciferase (HEK-CMV-Luc2-Hygro)
- Knock-down reagent: single siRNA against human genes, 0.8 pmol siRNA per well
- Timing: 72 h
- Read-out: 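Reporter luminescence and viable-cell signal on separate replicate plates, given as percent of non-targeting control and median/MAD z-scores, plus per-cell luciferase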
- Reading the numbers: total luciferase, z-score: higher = more reporter protein produced
- Hit rule: 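Active when the median/MAD z-score for overall luciferase is greater than 3; a gene was taken forward for validation with new siRNAs if at least two of its three siRNAs passed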
- Meaning of the calls: active = raised luciferase; inactive = no rise

Against PSMC5 #1, the entry reads total luciferase, z-score -0.389; inactive.
With knock-down of PSMC5 #2 the results were total luciferase, z-score 0.0885; inactive.
Knock-down of PSMC5 #3 resulted in: total luciferase, z-score 0.514; inactive.
After knock-down of MMRN1 #1 the results were total luciferase, z-score -2.1; inactive.
With knock-down of MMRN1 #2 the results were total luciferase, z-score 1.8; inactive.
MMRN1 #3 showed total luciferase, z-score 0.663; inactive.
AMY1A #1 showed total luciferase, z-score 0.315; inactive.
With knock-down of AMY1A #2 the results were total luciferase, z-score 0.0361; inactive.
Knock-down of AMY1A #3 came out at: total luciferase, z-score -0.0496; inactive.
INHBE #1 showed total luciferase, z-score 1.27; inactive.
Against INHBE #2 the deposit lists total luciferase, z-score 0.547; inactive.
For INHBE #3, the entry reads total luciferase, z-score -2.07; inactive.

Ordered by “total luciferase, z-score” (low to high): 2 of the entries above.
MMRN1 #1 | total luciferase, z-score: -2.1; outcome: inactive
MMRN1 #2 | total luciferase, z-score: 1.8; outcome: inactive
